Results published in the supplement of paper PMC12823440, “Inhibitors supercharge kinase turnover through native proteolytic circuits” (Nature, 2025).
Some of the results follow. Hit calls seldom repeat between salt and free forms of one compound.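 Kinases were expressed as nanoluciferase fusions in K562 cells and luminescence was read every 4 h between 2 and 18 h as percent of control, DMSO set to 100% and a positive control to 0%. A time point counts as decreased when the signal drops significantly (2 sigma). The hit call is the authors' own, does not follow from the count of time points alone, and its rule is not shown.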

Amino acid sequences for entries named in this document (tags omitted). A change or cut given only in a name is not applied to a line headed by its entry.
UniProt P06239: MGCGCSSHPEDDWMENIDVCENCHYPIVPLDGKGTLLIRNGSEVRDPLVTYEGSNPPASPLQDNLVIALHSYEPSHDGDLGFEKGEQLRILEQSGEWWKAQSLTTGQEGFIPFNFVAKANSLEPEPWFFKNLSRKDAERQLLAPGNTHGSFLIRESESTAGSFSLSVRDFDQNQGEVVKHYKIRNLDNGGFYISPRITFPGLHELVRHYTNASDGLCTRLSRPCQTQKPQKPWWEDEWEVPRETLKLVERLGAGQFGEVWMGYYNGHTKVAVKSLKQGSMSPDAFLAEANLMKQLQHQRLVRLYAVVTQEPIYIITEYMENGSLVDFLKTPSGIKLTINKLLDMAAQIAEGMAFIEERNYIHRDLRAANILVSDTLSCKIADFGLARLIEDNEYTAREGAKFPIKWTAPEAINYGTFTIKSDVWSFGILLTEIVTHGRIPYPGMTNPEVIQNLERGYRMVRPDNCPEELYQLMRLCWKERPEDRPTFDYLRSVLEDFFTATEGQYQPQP
UniProt Q8IWU2: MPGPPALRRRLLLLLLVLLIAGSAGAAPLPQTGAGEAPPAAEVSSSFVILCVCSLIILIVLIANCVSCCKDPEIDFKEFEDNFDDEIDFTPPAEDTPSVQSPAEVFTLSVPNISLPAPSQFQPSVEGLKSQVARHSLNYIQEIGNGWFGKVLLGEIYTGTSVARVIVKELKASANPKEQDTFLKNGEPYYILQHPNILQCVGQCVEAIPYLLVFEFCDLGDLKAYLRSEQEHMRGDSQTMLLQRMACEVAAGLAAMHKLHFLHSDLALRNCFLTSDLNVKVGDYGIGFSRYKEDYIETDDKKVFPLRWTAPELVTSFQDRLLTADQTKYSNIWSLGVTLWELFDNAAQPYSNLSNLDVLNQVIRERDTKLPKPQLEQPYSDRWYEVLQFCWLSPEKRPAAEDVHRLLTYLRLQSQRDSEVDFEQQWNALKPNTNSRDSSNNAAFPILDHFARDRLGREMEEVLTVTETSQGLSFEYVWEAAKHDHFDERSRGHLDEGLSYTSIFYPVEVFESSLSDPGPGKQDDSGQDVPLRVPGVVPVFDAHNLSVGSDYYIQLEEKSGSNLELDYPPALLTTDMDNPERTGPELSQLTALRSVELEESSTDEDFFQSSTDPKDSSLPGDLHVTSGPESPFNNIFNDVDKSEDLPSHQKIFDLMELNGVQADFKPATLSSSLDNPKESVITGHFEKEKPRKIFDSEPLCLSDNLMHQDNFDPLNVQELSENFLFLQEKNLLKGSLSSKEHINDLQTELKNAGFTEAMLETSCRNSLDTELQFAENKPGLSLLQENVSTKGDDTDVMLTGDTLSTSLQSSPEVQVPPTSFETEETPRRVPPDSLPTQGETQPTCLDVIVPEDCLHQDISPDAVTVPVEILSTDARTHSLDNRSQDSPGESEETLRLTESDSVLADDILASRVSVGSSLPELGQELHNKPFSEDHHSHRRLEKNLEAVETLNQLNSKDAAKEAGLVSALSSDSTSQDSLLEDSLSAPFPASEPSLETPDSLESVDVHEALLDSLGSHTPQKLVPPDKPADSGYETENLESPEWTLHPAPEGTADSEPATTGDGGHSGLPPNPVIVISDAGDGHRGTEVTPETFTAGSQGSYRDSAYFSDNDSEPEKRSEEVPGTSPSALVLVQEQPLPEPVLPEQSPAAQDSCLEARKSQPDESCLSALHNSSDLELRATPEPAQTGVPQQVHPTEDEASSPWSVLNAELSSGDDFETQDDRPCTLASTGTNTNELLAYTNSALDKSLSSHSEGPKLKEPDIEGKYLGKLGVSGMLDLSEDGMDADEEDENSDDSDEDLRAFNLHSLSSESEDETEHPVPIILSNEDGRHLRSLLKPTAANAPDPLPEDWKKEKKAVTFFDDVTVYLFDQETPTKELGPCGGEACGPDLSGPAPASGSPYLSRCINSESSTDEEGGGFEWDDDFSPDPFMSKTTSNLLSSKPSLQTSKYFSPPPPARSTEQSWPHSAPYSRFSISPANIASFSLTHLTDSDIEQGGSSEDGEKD
UniProt P07948: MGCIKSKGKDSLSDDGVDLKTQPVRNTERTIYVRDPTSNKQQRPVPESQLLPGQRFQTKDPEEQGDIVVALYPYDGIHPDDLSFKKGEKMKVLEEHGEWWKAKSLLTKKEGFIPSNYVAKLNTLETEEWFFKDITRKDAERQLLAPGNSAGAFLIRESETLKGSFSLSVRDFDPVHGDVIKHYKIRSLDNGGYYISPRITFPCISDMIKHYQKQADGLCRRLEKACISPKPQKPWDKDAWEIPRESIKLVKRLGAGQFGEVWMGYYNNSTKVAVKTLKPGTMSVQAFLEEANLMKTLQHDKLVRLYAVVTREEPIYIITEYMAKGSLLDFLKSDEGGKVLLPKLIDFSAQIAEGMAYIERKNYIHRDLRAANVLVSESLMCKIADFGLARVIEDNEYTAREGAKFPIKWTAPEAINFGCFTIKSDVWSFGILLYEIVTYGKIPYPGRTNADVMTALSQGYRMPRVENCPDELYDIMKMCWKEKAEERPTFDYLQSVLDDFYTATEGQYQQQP
UniProt P28482, whole entry: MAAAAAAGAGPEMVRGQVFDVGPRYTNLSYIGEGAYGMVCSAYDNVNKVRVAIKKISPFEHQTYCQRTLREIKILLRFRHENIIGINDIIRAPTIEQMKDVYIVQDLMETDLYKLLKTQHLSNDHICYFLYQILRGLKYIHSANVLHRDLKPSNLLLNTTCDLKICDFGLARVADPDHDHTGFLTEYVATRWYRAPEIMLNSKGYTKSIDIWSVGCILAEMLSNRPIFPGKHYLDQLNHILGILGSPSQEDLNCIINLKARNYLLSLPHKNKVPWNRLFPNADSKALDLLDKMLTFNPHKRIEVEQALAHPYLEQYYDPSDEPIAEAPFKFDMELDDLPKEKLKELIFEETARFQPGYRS
UniProt P31152, whole entry: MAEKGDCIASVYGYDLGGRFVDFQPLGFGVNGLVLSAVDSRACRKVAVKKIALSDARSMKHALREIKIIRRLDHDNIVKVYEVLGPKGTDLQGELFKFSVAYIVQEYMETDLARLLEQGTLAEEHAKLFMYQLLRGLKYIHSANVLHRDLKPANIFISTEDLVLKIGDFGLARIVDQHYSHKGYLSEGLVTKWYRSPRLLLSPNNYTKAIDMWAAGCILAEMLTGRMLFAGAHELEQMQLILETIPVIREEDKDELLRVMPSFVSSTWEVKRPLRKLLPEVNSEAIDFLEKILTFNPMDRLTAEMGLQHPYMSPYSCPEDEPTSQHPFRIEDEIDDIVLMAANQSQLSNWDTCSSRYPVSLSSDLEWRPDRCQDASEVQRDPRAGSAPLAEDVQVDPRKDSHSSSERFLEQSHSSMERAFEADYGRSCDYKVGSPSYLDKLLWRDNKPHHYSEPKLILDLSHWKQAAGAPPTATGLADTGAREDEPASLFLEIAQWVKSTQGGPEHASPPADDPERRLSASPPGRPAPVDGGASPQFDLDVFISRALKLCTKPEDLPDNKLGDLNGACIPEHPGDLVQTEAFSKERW
UniProt P49137, whole entry, looked up: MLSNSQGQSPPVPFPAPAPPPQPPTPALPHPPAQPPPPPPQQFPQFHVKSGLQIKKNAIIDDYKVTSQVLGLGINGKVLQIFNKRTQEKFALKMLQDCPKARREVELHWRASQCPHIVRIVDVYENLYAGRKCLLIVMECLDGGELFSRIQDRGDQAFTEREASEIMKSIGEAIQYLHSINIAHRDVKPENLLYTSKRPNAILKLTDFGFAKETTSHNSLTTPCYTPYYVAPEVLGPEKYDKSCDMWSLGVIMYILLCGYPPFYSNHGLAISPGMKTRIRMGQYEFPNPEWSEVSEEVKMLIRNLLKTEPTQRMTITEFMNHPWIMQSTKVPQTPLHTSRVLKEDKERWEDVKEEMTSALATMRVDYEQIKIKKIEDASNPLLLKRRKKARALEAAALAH
UniProt Q9BUB5: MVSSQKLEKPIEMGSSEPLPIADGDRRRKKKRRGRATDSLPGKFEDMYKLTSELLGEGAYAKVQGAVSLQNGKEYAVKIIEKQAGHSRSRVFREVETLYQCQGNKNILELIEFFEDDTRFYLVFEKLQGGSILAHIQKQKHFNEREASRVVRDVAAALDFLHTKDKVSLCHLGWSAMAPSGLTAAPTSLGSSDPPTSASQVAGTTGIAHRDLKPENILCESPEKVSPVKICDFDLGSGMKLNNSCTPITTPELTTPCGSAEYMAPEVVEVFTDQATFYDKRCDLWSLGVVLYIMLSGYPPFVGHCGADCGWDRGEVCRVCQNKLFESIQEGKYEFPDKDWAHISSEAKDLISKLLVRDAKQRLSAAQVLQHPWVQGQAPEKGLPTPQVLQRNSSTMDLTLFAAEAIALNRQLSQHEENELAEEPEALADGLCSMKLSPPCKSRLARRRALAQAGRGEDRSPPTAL
UniProt Q16288, whole entry, looked up: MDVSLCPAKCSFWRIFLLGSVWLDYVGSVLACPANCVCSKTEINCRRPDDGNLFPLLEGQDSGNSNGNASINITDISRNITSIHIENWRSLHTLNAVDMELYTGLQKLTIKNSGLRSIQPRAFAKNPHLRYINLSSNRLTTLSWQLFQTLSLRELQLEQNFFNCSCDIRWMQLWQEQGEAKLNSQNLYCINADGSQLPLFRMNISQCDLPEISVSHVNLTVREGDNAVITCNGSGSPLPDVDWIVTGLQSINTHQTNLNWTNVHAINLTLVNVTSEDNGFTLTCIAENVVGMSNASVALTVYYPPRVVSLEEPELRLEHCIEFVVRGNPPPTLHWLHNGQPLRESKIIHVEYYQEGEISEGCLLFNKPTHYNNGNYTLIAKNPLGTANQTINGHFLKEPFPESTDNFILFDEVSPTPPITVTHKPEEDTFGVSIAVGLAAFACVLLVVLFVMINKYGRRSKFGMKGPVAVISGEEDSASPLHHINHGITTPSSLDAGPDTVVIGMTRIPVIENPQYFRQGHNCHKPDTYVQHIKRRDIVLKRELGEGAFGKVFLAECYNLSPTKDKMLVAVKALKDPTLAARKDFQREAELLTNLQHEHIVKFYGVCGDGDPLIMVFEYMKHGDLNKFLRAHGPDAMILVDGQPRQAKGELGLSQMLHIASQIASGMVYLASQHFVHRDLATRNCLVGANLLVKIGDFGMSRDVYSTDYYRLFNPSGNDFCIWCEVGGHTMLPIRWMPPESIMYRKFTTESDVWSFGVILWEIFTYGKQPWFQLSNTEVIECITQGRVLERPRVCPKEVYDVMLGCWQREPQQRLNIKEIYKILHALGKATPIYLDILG
UniProt O96013: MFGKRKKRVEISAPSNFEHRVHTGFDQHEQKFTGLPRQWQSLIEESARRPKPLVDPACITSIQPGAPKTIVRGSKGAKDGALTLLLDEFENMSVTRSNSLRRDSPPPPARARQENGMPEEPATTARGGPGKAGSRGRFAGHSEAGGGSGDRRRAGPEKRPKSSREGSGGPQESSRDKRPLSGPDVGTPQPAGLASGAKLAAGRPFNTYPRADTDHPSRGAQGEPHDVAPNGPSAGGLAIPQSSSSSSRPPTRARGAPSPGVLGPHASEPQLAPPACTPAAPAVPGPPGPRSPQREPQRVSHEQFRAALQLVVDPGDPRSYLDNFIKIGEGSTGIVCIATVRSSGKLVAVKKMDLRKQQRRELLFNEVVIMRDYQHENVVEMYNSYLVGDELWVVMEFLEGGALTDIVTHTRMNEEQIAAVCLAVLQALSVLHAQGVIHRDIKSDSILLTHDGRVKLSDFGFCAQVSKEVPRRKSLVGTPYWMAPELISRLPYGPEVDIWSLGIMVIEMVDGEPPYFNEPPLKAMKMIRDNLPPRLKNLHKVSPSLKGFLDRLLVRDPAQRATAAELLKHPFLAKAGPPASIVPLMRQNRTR
UniProt Q96KB5: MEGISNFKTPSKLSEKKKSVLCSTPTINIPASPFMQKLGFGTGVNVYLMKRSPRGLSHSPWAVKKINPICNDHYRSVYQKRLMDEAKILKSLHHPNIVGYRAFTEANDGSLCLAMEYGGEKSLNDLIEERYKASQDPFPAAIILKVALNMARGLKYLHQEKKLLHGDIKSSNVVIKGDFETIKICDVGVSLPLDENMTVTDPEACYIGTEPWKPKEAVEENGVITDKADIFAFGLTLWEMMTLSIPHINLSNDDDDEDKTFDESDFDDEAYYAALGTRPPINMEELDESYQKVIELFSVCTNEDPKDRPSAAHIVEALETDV
UniProt Q15118, whole entry, looked up: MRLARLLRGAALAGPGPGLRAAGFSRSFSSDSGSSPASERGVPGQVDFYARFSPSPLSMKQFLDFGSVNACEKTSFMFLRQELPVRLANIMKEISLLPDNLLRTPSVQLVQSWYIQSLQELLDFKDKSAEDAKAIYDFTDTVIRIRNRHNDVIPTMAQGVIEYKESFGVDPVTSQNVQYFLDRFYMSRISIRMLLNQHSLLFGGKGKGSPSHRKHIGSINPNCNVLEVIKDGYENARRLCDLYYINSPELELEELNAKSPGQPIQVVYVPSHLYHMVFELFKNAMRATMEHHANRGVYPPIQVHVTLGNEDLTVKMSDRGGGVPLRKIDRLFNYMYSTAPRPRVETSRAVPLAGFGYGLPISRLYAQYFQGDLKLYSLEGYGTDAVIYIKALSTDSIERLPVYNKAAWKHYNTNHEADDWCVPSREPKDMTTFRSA

Legend:
Assay in all cases: kinase-Nluc reporter destabilization hit call (1 = scored as downregulated) (binary); higher = compound decreases kinase abundance
Conditions in all cases: K562; 2-18 h
IRAK3 = IRAK3 (UniProt Q9Y616)
JAK1 = JAK1 (UniProt P23458)
LCK = LCK (UniProt P06239)
LIMK1 = LIMK1 (UniProt P53667)
LIMK2 = LIMK2 (UniProt P53671)
LMTK2 = LMTK2 (UniProt Q8IWU2)
LYN = LYN (UniProt P07948)
MAP2K1 = MAP2K1 (UniProt Q02750)
MAP2K2 = MAP2K2 (UniProt P36507)
MAP4K2 = MAP4K2 (UniProt Q12851)
MAPK1 = MAPK1 (UniProt P28482)
MAPK4 = MAPK4 (UniProt P31152)
MAPKAPK2 = MAPKAPK2 (UniProt P49137)
MKNK1 = MKNK1 (UniProt Q9BUB5)
NTRK2 = NTRK2 (UniProt Q16620)
NTRK3 = NTRK3 (UniProt Q16288)
PAK4 = PAK4 (UniProt O96013)
PBK = PBK (UniProt Q96KB5)
PDGFRB = PDGFRB (UniProt P09619)
PDK1 = PDK1 (UniProt Q15118)

Measured: kinase-Nluc reporter destabilization hit call

CCCCCC(=O)N[C@@H](Cc1ccc(O)cc1)C(=O)OC (10 µM)
inactive: IRAK3 = 0 | JAK1 = 0 | LCK 0 | LIMK1 = 0 | LIMK2 = 0 | LMTK2 = 0 | LYN 0 | MAP2K1 = 0 | MAP2K2 = 0 | MAP4K2 = 0 | MAPK1 = 0 | MAPK4 = 0 | MAPKAPK2 = 0 | MKNK1 = 0 | NTRK2 = 0 | NTRK3 = 0 | PAK4 = 0 | PBK 0 | PDGFRB 0 | PDK1 = 0

CO[C@H]1C[C@@H]2CC[C@@H](C)[C@@](O)(O2)C(=O)C(=O)N2CCCC[C@H]2C(=O)O[C@H]([C@H](C)C[C@@H]2CC[C@@H](OCCO)[C@H](OC)C2)CC(=O)[C@H](C)/C=C(\C)[C@@H](O)[C@@H](OC)C(=O)[C@H](C)C[C@H](C)/C=C/C=C/C=C/1C [Everolimus] (10 µM)
inactive: IRAK3 = 0 | JAK1 = 0 | LCK 0 | LIMK1 = 0 | LIMK2 = 0 | LMTK2 = 0 | LYN 0 | MAP2K1 = 0 | MAP2K2 = 0 | MAP4K2 = 0 | MAPK1 = 0 | MAPK4 = 0 | MAPKAPK2 = 0 | MKNK1 = 0 | NTRK2 = 0 | NTRK3 = 0 | PAK4 = 0 | PBK 0 | PDGFRB 0 | PDK1 = 0

O=C(O)c1ccc(/C=C/S(=O)(=O)Cc2ccc(Cl)cc2)cc1 [Recilisib] (10 µM)
inactive: IRAK3 = 0 | JAK1 = 0 | LCK 0 | LIMK1 = 0 | LIMK2 = 0 | LMTK2 = 0 | LYN 0 | MAP2K1 = 0 | MAP2K2 = 0 | MAP4K2 = 0 | MAPK1 = 0 | MAPK4 = 0 | MAPKAPK2 = 0 | MKNK1 = 0 | NTRK2 = 0 | NTRK3 = 0 | PAK4 = 0 | PBK 0 | PDGFRB 0 | PDK1 = 0

O=c1cc(-c2ccccc2)oc2cc(O[C@@H]3O[C@H](CO[C@@H]4O[C@H](CO)[C@@H](O)[C@H](O)[C@H]4O)[C@@H](O)[C@H](O)[C@H]3O)c(O)c(O)c12 [Oroxin B] (10 µM)
inactive: IRAK3 = 0 | JAK1 = 0 | LCK 0 | LIMK1 = 0 | LIMK2 = 0 | LMTK2 = 0 | LYN 0 | MAP2K1 = 0 | MAP2K2 = 0 | MAP4K2 = 0 | MAPK1 = 0 | MAPK4 = 0 | MAPKAPK2 = 0 | MKNK1 = 0 | NTRK2 = 0 | NTRK3 = 0 | PAK4 = 0 | PBK 0 | PDGFRB 0 | PDK1 = 0

C=CC(=O)Nc1ccc(C(=O)Nc2[nH]nc3c2CN(C(=O)N[C@H](CN(C)C)c2ccccc2)C3(C)C)cc1 (10 µM)
inactive: IRAK3 = 0 | JAK1 = 0 | LCK 0 | LIMK1 = 0 | LIMK2 = 0 | LMTK2 = 0 | LYN 0 | MAP2K1 = 0 | MAP2K2 = 0 | MAP4K2 = 0 | MAPK1 = 0 | MAPK4 = 0 | MAPKAPK2 = 0 | MKNK1 = 0 | NTRK2 = 0 | NTRK3 = 0 | PAK4 = 0 | PBK 0 | PDGFRB 0 | PDK1 = 0

Copied from the results shown (2 entries):
O=c1cc(-c2ccccc2)oc2cc(O[C@@H]3O[C@H](CO[C@@H]4O[C@H](CO)[C@@H](O)[C@H](O)[C@H]4O)[C@@H](O)[C@H](O)[C@H]3O)c(O)c(O)c12 [Oroxin B] (10 µM)
inactive: IRAK3 = 0 | JAK1 = 0 | LCK 0 | LIMK1 = 0 | LIMK2 = 0 | LMTK2 = 0 | LYN 0 | MAP2K1 = 0 | MAP2K2 = 0 | MAP4K2 = 0 | MAPK1 = 0 | MAPK4 = 0 | MAPKAPK2 = 0 | MKNK1 = 0 | NTRK2 = 0 | NTRK3 = 0 | PAK4 = 0 | PBK 0 | PDGFRB 0 | PDK1 = 0

C=CC(=O)Nc1ccc(C(=O)Nc2[nH]nc3c2CN(C(=O)N[C@H](CN(C)C)c2ccccc2)C3(C)C)cc1 (10 µM)
inactive: IRAK3 = 0 | JAK1 = 0 | LCK 0 | LIMK1 = 0 | LIMK2 = 0 | LMTK2 = 0 | LYN 0 | MAP2K1 = 0 | MAP2K2 = 0 | MAP4K2 = 0 | MAPK1 = 0 | MAPK4 = 0 | MAPKAPK2 = 0 | MKNK1 = 0 | NTRK2 = 0 | NTRK3 = 0 | PAK4 = 0 | PBK 0 | PDGFRB 0 | PDK1 = 0

Remaining list, next part:

O=C(ON=C1c2ccccc2-c2nc3ccccc3nc21)c1ccco1 (2.5 µM)
inactive: IRAK3 = 0 | JAK1 = 0 | LCK 0 | LIMK1 = 0 | LIMK2 = 0 | LMTK2 = 0 | LYN 0 | MAP2K1 = 0 | MAP2K2 = 0 | MAP4K2 = 0 | MAPK1 = 0 | MAPK4 = 0 | MAPKAPK2 = 0 | MKNK1 = 0 | NTRK2 = 0 | NTRK3 = 0 | PAK4 = 0 | PBK 0 | PDGFRB 0 | PDK1 = 0

C[C@@H](Nc1ncnc2[nH]c(-c3ccc(O)cc3)cc12)c1ccccc1 (2.5 µM)
inactive: IRAK3 = 0 | JAK1 = 0 | LCK 0 | LIMK1 = 0 | LIMK2 = 0 | LMTK2 = 0 | LYN 0 | MAP2K1 = 0 | MAP2K2 = 0 | MAP4K2 = 0 | MAPK1 = 0 | MAPK4 = 0 | MAPKAPK2 = 0 | MKNK1 = 0 | NTRK2 = 0 | NTRK3 = 0 | PAK4 = 0 | PBK 0 | PDGFRB 0 | PDK1 = 0

Nc1nc(N)c2nc(-c3cccc(O)c3)c(-c3cccc(O)c3)nc2n1 (10 µM)
inactive: IRAK3 = 0 | JAK1 = 0 | LCK 0 | LIMK1 = 0 | LIMK2 = 0 | LMTK2 = 0 | LYN 0 | MAP2K1 = 0 | MAP2K2 = 0 | MAP4K2 = 0 | MAPK1 = 0 | MAPK4 = 0 | MAPKAPK2 = 0 | MKNK1 = 0 | NTRK2 = 0 | NTRK3 = 0 | PAK4 = 0 | PBK 0 | PDGFRB 0 | PDK1 = 0

Cn1c2cc([S+](C)[O-])sc2c2cnn(Cc3cccc(N)c3)c(=O)c21 (stereo not given) (2.5 µM)
inactive: IRAK3 = 0 | JAK1 = 0 | LCK 0 | LIMK1 = 0 | LIMK2 = 0 | LMTK2 = 0 | LYN 0 | MAP2K1 = 0 | MAP2K2 = 0 | MAP4K2 = 0 | MAPK1 = 0 | MAPK4 = 0 | MAPKAPK2 = 0 | MKNK1 = 0 | NTRK2 = 0 | NTRK3 = 0 | PAK4 = 0 | PBK 0 | PDGFRB 0 | PDK1 = 0

C=CC(=O)Nc1cc(Nc2nccc(-c3cn(C)c4ccccc34)n2)c(OC)cc1OCCN(C)C [Rezivertinib] (2.5 µM)
inactive: IRAK3 = 0 | JAK1 = 0 | LCK 0 | LIMK1 = 0 | LIMK2 = 0 | LMTK2 = 0 | LYN 0 | MAP2K1 = 0 | MAP2K2 = 0 | MAP4K2 = 0 | MAPK1 = 0 | MAPK4 = 0 | MAPKAPK2 = 0 | MKNK1 = 0 | NTRK2 = 0 | NTRK3 = 0 | PAK4 = 0 | PBK 0 | PDGFRB 0 | PDK1 = 0

COc1cc2ncnc(Nc3cccc(I)c3)c2cc1OC (2.5 µM)
inactive: IRAK3 = 0 | JAK1 = 0 | LCK 0 | LIMK1 = 0 | LIMK2 = 0 | LMTK2 = 0 | LYN 0 | MAP2K1 = 0 | MAP2K2 = 0 | MAP4K2 = 0 | MAPK1 = 0 | MAPK4 = 0 | MAPKAPK2 = 0 | MKNK1 = 0 | NTRK2 = 0 | NTRK3 = 0 | PAK4 = 0 | PBK 0 | PDGFRB 0 | PDK1 = 0

Nc1nccc(-c2c(-c3ccc(F)cc3)ncn2C2CCCCC2)n1 (10 µM)
inactive: IRAK3 = 0 | JAK1 = 0 | LCK 0 | LIMK1 = 0 | LIMK2 = 0 | LMTK2 = 0 | LYN 0 | MAP2K1 = 0 | MAP2K2 = 0 | MAP4K2 = 0 | MAPK1 = 0 | MAPK4 = 0 | MAPKAPK2 = 0 | MKNK1 = 0 | NTRK2 = 0 | NTRK3 = 0 | PAK4 = 0 | PBK 0 | PDGFRB 0 | PDK1 = 0

CCN(CC)CCOc1ccc(Nc2nc(-c3ccccc3NC(=O)CCN3CCN(C)CC3)nc3ccccc23)cc1 (2.5 µM)
inactive: IRAK3 = 0 | JAK1 = 0 | LCK 0 | LIMK1 = 0 | LIMK2 = 0 | LMTK2 = 0 | LYN 0 | MAP2K1 = 0 | MAP2K2 = 0 | MAP4K2 = 0 | MAPK1 = 0 | MAPK4 = 0 | MAPKAPK2 = 0 | MKNK1 = 0 | NTRK2 = 0 | NTRK3 = 0 | PAK4 = 0 | PBK 0 | PDGFRB 0 | PDK1 = 0

COc1cc(-c2cc(OP(=O)(O)O)cc(-c3cc(OC)c(OC)c(OC)c3)c2)cc(OC)c1OC [Stafia-1] (10 µM)
inactive: IRAK3 = 0 | JAK1 = 0 | LCK 0 | LIMK1 = 0 | LIMK2 = 0 | LMTK2 = 0 | LYN 0 | MAP2K1 = 0 | MAP2K2 = 0 | MAP4K2 = 0 | MAPK1 = 0 | MAPK4 = 0 | MAPKAPK2 = 0 | MKNK1 = 0 | NTRK2 = 0 | NTRK3 = 0 | PAK4 = 0 | PBK 0 | PDGFRB 0 | PDK1 = 0

CC(C)=CCC/C(C)=C/CC/C(C)=C/C=C/C(C)=C/C(=O)O [Peretinoin] (10 µM)
inactive: IRAK3 = 0 | JAK1 = 0 | LCK 0 | LIMK1 = 0 | LIMK2 = 0 | LMTK2 = 0 | LYN 0 | MAP2K1 = 0 | MAP2K2 = 0 | MAP4K2 = 0 | MAPK1 = 0 | MAPK4 = 0 | MAPKAPK2 = 0 | MKNK1 = 0 | NTRK2 = 0 | NTRK3 = 0 | PAK4 = 0 | PBK 0 | PDGFRB 0 | PDK1 = 0

N#Cc1cnc2c(Cl)cc(NCc3cn(CCN4CCCCCC4)nn3)cc2c1Nc1ccc(F)c(Cl)c1 [Cot inhibitor-1] (10 µM)
inactive: IRAK3 = 0 | JAK1 = 0 | LCK 0 | LIMK1 = 0 | LIMK2 = 0 | LMTK2 = 0 | LYN 0 | MAP2K1 = 0 | MAP2K2 = 0 | MAP4K2 = 0 | MAPK1 = 0 | MAPK4 = 0 | MAPKAPK2 = 0 | MKNK1 = 0 | NTRK2 = 0 | NTRK3 = 0 | PAK4 = 0 | PBK 0 | PDGFRB 0 | PDK1 = 0

Cc1ccc(-n2nc(C(C)(C)C)cc2NC(=O)Nc2ccc(OCCN3CCOCC3)cc2)cc1 (10 µM)
inactive: IRAK3 = 0 | JAK1 = 0 | LCK 0 | LIMK1 = 0 | LIMK2 = 0 | LMTK2 = 0 | LYN 0 | MAP2K1 = 0 | MAP2K2 = 0 | MAP4K2 = 0 | MAPK1 = 0 | MAPK4 = 0 | MAPKAPK2 = 0 | MKNK1 = 0 | NTRK2 = 0 | NTRK3 = 0 | PAK4 = 0 | PBK 0 | PDGFRB 0 | PDK1 = 0

c1nn(C2CCOCC2)cc1Nc1ncc2nnn(-c3ccc4cn[nH]c4c3)c2n1 (10 µM)
inactive: IRAK3 = 0 | JAK1 = 0 | LCK 0 | LIMK1 = 0 | LIMK2 = 0 | LMTK2 = 0 | LYN 0 | MAP2K1 = 0 | MAP2K2 = 0 | MAP4K2 = 0 | MAPK1 = 0 | MAPK4 = 0 | MAPKAPK2 = 0 | MKNK1 = 0 | NTRK2 = 0 | NTRK3 = 0 | PAK4 = 0 | PBK 0 | PDGFRB 0 | PDK1 = 0
